Drawing on the supplement of paper PMC12819154, “High-throughput peptide-centric local stability assay extends protein–ligand identification to membrane proteins, tissues and bacteria” (Nature Structural & Molecular Biology, 2025), this text covers log2 fold change for 29 targets.

The chains behind the UniProt entries cited, without tags or fusion partners. Where a name states a change or a piece, a line headed by the entry shows the natural chain unless it says otherwise.
UniProt Q52LJ0: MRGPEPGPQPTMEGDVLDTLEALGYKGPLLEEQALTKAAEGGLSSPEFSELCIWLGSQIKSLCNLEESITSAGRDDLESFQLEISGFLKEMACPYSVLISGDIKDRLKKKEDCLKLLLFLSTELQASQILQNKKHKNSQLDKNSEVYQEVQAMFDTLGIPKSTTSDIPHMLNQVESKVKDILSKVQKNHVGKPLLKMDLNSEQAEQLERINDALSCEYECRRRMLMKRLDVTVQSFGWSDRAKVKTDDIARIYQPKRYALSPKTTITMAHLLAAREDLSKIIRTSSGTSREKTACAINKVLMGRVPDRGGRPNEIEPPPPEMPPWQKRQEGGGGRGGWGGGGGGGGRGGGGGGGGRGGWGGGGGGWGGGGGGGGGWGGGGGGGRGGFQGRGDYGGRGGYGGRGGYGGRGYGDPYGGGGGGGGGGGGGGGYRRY
UniProt Q5R3I4: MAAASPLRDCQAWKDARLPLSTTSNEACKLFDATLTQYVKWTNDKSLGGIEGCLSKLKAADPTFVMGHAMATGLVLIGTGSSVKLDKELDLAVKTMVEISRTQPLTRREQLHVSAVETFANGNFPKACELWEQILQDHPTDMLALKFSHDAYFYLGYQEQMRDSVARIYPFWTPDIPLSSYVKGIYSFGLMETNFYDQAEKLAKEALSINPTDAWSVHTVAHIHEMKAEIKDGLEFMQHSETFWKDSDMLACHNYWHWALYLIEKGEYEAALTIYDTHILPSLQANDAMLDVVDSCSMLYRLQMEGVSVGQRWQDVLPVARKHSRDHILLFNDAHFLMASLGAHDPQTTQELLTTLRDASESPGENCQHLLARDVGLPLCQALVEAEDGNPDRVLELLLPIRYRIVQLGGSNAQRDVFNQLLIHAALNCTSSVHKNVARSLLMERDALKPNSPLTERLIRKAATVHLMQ
UniProt Q5TEU4: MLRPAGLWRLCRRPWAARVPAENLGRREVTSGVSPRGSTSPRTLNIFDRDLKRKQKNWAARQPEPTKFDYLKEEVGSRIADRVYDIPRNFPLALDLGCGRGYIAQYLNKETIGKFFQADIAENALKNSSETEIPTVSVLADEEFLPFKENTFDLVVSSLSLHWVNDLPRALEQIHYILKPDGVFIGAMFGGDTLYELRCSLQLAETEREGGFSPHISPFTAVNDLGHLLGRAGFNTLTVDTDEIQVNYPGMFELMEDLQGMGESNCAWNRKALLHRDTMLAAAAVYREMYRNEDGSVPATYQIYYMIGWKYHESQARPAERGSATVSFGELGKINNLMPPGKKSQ
UniProt Q5M9Q1: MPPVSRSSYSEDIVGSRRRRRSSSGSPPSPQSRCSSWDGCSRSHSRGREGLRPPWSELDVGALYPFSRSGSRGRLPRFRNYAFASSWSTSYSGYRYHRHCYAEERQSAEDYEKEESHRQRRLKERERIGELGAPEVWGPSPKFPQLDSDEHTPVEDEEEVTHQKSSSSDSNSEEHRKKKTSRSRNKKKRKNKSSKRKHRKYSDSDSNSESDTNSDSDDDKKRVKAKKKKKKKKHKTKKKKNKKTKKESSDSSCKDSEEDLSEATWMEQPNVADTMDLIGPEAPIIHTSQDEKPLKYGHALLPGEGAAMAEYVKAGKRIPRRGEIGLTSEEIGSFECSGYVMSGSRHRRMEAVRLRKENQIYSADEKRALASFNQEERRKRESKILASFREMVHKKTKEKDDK
UniProt Q5FBB7: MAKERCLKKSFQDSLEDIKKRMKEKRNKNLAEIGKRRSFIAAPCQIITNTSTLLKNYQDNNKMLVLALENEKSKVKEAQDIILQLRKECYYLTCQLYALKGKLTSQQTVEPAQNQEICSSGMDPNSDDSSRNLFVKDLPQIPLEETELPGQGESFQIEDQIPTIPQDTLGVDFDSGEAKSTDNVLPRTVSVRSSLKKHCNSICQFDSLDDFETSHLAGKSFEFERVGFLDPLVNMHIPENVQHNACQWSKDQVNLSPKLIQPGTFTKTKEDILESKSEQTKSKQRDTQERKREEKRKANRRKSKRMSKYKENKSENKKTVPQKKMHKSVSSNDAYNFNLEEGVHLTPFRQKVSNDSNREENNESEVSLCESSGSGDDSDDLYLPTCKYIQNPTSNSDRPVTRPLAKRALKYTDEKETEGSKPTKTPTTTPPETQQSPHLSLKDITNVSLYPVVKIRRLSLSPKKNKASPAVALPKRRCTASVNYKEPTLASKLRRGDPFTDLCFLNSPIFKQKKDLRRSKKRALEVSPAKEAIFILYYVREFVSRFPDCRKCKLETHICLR
UniProt Q5EBL4: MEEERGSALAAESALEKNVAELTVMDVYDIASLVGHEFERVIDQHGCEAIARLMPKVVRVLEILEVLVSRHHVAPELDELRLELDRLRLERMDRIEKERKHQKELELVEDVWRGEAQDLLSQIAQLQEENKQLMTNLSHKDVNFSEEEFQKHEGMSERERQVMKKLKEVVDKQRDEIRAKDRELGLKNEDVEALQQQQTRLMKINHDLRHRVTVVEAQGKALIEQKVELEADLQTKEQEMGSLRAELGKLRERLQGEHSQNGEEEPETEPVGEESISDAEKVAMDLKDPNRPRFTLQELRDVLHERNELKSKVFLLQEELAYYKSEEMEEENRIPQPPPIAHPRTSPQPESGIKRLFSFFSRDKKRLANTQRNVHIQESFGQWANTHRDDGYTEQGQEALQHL
UniProt Q5K651: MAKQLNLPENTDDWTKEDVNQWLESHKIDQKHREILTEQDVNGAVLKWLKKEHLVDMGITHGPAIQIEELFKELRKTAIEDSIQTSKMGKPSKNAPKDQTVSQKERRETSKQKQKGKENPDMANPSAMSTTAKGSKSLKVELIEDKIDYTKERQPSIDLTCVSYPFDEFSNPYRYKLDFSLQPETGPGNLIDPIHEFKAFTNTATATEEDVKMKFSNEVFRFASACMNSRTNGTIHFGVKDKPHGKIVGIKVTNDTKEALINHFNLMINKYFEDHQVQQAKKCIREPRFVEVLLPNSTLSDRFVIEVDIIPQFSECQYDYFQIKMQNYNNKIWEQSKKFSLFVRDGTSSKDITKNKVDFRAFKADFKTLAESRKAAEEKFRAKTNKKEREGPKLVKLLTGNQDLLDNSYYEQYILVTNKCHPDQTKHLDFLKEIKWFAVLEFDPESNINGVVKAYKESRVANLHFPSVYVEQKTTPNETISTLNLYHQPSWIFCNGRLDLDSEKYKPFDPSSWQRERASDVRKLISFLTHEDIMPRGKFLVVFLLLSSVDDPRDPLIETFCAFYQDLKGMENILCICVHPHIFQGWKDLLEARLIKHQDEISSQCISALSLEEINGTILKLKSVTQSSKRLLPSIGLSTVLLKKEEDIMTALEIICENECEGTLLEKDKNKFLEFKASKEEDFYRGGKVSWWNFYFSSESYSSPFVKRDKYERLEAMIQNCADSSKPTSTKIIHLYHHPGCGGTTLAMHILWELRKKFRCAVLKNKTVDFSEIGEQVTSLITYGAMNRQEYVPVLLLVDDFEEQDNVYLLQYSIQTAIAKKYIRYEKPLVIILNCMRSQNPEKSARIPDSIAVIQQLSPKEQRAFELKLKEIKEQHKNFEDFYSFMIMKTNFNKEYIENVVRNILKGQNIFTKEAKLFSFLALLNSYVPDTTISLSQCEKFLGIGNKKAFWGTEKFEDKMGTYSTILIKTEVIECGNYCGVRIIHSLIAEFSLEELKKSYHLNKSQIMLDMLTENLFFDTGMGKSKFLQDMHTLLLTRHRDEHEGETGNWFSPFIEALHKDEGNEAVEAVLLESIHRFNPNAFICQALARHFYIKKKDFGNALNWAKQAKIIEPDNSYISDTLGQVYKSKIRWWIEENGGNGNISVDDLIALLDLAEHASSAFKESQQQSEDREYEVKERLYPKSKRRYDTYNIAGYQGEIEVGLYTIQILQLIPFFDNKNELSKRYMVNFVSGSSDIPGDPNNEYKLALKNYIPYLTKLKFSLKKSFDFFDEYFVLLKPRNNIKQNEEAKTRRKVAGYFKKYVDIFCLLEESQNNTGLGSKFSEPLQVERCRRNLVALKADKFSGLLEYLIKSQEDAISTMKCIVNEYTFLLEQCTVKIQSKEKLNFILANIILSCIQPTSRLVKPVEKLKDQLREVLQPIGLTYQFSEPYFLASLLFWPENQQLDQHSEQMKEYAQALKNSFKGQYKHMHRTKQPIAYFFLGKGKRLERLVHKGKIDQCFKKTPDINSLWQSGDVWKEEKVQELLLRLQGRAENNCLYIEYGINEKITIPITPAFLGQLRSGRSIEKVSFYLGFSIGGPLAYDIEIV
UniProt Q5BJE1: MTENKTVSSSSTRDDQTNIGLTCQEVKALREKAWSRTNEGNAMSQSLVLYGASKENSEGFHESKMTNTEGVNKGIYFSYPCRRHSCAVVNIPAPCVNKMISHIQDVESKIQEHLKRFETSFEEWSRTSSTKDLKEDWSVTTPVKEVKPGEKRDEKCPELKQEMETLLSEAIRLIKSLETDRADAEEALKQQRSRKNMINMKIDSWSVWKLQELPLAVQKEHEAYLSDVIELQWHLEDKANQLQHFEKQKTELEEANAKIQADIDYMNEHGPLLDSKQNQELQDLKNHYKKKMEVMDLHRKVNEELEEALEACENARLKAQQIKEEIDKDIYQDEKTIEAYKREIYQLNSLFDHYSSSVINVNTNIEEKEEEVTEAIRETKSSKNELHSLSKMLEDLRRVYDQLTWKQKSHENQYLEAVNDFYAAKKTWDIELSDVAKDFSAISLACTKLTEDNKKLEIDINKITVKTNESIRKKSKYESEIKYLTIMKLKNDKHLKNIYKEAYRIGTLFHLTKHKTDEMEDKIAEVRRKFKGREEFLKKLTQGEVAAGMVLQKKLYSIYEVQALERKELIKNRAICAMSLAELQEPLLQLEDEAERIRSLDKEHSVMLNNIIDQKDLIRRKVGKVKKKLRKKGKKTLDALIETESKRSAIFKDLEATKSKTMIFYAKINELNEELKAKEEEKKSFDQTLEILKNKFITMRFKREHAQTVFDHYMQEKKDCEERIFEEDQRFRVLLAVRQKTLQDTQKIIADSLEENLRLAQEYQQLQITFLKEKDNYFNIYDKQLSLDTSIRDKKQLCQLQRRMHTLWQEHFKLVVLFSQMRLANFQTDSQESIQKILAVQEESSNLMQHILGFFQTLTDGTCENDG
UniProt Q56A73: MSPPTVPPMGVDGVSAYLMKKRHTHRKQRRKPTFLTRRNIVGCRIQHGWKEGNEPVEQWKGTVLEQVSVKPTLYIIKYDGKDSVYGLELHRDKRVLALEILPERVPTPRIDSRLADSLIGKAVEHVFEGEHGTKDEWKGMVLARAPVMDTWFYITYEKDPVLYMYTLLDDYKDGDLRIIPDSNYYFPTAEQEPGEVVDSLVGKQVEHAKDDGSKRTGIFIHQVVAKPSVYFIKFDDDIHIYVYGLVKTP
UniProt Q5BJH7: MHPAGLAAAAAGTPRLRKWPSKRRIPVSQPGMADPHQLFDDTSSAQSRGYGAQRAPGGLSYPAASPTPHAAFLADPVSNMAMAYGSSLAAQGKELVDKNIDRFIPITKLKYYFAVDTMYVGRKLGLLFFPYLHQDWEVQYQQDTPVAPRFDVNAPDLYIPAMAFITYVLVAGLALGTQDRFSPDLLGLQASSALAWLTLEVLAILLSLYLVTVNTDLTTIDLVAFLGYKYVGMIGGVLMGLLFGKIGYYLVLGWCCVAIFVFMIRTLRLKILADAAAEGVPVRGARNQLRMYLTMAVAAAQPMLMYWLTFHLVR
UniProt Q5VIY5: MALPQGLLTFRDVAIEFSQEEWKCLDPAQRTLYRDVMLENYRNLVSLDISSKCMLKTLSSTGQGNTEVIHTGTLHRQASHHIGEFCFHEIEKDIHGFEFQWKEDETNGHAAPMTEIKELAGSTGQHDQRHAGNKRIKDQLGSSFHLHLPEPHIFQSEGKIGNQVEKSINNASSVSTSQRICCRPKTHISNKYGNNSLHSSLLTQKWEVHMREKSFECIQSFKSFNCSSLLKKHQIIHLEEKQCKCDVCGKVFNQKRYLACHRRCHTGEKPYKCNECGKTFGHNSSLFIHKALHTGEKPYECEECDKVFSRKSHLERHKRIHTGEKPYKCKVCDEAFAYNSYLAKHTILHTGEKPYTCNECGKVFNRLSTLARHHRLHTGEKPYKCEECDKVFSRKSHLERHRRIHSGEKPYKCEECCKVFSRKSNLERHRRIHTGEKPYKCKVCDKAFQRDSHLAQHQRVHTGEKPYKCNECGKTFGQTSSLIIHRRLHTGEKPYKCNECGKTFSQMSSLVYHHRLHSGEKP
UniProt Q58FF8, whole entry: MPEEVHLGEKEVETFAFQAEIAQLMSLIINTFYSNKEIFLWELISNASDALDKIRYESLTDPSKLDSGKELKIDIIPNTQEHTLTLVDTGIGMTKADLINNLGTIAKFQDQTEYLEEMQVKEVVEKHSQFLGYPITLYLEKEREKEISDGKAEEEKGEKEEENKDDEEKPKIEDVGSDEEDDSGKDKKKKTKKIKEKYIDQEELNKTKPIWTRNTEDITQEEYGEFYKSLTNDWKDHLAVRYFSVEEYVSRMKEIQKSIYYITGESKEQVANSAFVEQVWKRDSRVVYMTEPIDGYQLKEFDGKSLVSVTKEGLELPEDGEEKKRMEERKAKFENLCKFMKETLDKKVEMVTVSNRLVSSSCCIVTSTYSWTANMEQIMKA

Some of the results follow. Small differences around the control level are noise.

Compound in the assay: CN[C@@H]1C[C@H]2O[C@@](C)([C@@H]1OC)n1c3ccccc3c3c4c(c5c6ccccc6n2c5c31)C(=O)NC4 [staurosporine]
Nature of the assay: log2 fold change of tryptic peptide abundance, ligand vs vehicle (limited proteolysis) (log2 ratio); higher = more trypsin-susceptible (destabilized). The conditions noted are these: ligand concentration: 20 uM; sample: K562 cleared lysate; digestion: 4 min, 22 C (HT-PELSA RT4min, Orbitrap Astral).
Consider “FAM98B (peptide sequence: KKEDCLK, peptide start residue: 109) (UniProt Q52LJ0)”, for which the log2 fold change is 0.445.

On to “UniProt Q5VWQ0 (peptide sequence: RETPDENGK, peptide start residue: 234)”, for which the log2 fold change is -0.518.

Take “ZNF618 (peptide sequence: WKPQAQR, peptide start residue: 438) (UniProt Q5T7W0)”: the log2 fold change worked out at 0.324.

Consider “GFI1B (peptide sequence: VQEDEPLWPPALTPVPR, peptide start residue: 20) (UniProt Q5VTD9)”, for which the log2 fold change is -0.11.

On to “TTC38 (peptide sequence: VLELLLPIR, peptide start residue: 394) (UniProt Q5R3I4)”, for which the log2 fold change is -0.353.

Turning to “UniProt Q5TEU4 (peptide sequence: GSATVSFGELGK, peptide start residue: 322)”, the log2 fold change was 0.00937.

With “UniProt Q5VU92 (peptide sequence: QLELGTVNK, peptide start residue: 91)”, the log2 fold change was 0.0161.

Regarding “UBR4 (peptide sequence: KVQLTPGQTEVK, peptide start residue: 3617) (UniProt Q5T4S7)”, the log2 fold change came to 0.78.

As for “UniProt Q5M9Q1 (peptide sequence: ENQIYSADEKR, peptide start residue: 370)”, the log2 fold change was -0.213.

Regarding “C19orf54 (peptide sequence: SWHYQLWDYDQVR, peptide start residue: 294) (UniProt Q5BKX5)”, the log2 fold change is 0.406.

As for “SETMAR (peptide sequence: TTRPCGMAEFK, peptide start residue: 8) (UniProt Q53H47)”, the log2 fold change was -0.556.

Regarding “CCDC93 (peptide sequence: TVVDLSEVYKPR, peptide start residue: 168) (UniProt Q567U6)”, the log2 fold change is -0.11.

As to “UniProt Q5FBB7 (peptide sequence: NLAEIGKR, peptide start residue: 29)”, the log2 fold change came out at 0.47.

For “UniProt Q5JSJ4 (peptide sequence: ILASVGKKPPQEIGIK, peptide start residue: 437)”, the log2 fold change came out at 0.619.

As to “C12orf60 (peptide sequence: AMGPILEILQK, peptide start residue: 217) (UniProt Q5U649)”, the log2 fold change turned out to be 0.317.

Take “RILPL1 (peptide sequence: VTVVEAQGK, peptide start residue: 212) (UniProt Q5EBL4)”: the log2 fold change was -0.203.

As to “SAMD9 (peptide sequence: VELIEDKIDYTK, peptide start residue: 140) (UniProt Q5K651)”, the log2 fold change is -0.776.

Take “HABP4 (peptide sequence: YRDDMVKDDYEDDSHVFR, peptide start residue: 330) (UniProt Q5JVS0)”: the log2 fold change was -0.637.

Turning to “CCDC178 (peptide sequence: FITMRFK, peptide start residue: 696) (UniProt Q5BJE1)”, the log2 fold change is 0.334.

With “SPIN4 (peptide sequence: VLALEILPERVPTPR, peptide start residue: 95) (UniProt Q56A73)”, the log2 fold change is -0.0684.

As to “THEM4 (peptide sequence: TPTEWIQDFK, peptide start residue: 82) (UniProt Q5T1C6)”, the log2 fold change is -0.447.

Turning to “YIF1B (peptide sequence: MHPAGLAAAAAGTPR, peptide start residue: 1) (UniProt Q5BJH7)”, the log2 fold change was 0.0485.

Take “AHDC1 (peptide sequence: TEAACLSAPHLASPPATPK, peptide start residue: 1495) (UniProt Q5TGY3)”: the log2 fold change was -0.536.

As for “ZC3H13 (peptide sequence: QAYTSAPMVDNELLR, peptide start residue: 1617) (UniProt Q5T200)”, the log2 fold change was -0.911.

As for “UniProt Q5VIY5 (peptide sequence: ELAGSTGQHDQR, peptide start residue: 118)”, the log2 fold change is -0.0372.

“PRPF38B (peptide sequence: EGAEEIDR, peptide start residue: 246) (UniProt Q5VTL8)”: the log2 fold change was -0.116.

Regarding “TAF3 (peptide sequence: IKVEPVALAPSPVIPR, peptide start residue: 745) (UniProt Q5VWG9)”, the log2 fold change is 0.172.

Take “HSP90AB2P (peptide sequence: LDSGKELK, peptide start residue: 65) (UniProt Q58FF8)”: the log2 fold change came out at 0.514.

Regarding “MYSM1 (peptide sequence: TGHNLQVK, peptide start residue: 180) (UniProt Q5VVJ2)”, the log2 fold change turned out to be 0.211.
